Hit rate of the full screen: of about 300,000 compounds, about 5,400 (1.8%) were called active. This list was built around the results that the source calls inconclusive (neither active nor inactive); the mix of calls is not that of the screen. The call rests on the fitted dose curve; tested in HEK293 cells. Where the call is inconclusive, the potency comes from a doubtful curve fit.
Test: qHTS for inhibitors of binding or entry into cells for Marburg Virus
Conditions: Marburg virus pseudotyped entry inhibition, cell reporter; activity change, negative = inhibition: at 37.8 µM (top of the series) unless noted
On the % scale 0 is the no-effect control and ±100 the full control effect; potency means the concentration at half of the fitted maximal effect.

| Structure (SMILES) | Potency | activity change, negative = inhibition |
| --- | --- | --- |
| C/C(=N\NC(=O)c1ccc(Cn2cc(Br)cn2)o1)c1ccc(NC(=O)c2ccoc2C)cc1 | inconclusive: 35.5 µM [inhibitor, single point] | – |
| CCCCC(c1nnnn1CCOC)N1CCN(c2cccc(OC)c2)CC1 (stereo not drawn) | inconclusive: 35.5 µM [inhibitor, single point] | – |
| COCCN(C(=O)COc1ccccc1)c1nnc(-c2cccnc2)s1 | inconclusive: 6.31 µM [inhibitor, single point] | – |
| C/C(=N\NC(=O)c1ccccc1F)c1cccc(NC(=O)c2ccccc2)c1 | inconclusive: 7.08 µM [activator, partial curve, poor fit] | – |
| COc1ccccc1C(=O)/C=C/c1ccc(N2CCCCC2)c([N+](=O)[O-])c1 | inconclusive: 31.6 µM [inhibitor, single point] | – |
| COc1ccc(-n2c3c(cc(C(=O)N4CCN(CCO)CC4)c2=O)C(=O)CC(C)(C)C3)cc1 | – | inactive: 23% |
| CCOC(=O)C1CCN(C(C)C(=O)c2c(C)[nH]c3cc(C)ccc23)CC1 (stereo not drawn) | inconclusive: 11.2 µM [inhibitor, partial curve, poor fit] | – |
| Cc1onc(-c2c(F)cccc2Cl)c1C(=O)N(Cc1ccccc1)C(C)C | inconclusive: 10 µM [inhibitor, partial curve, poor fit] | – |
| O=c1cc(N2CCc3ccccc32)[nH]c(=O)n1-c1ccccc1Cl | – | inactive: -9.2% [at 46.1 µM] |
| Cc1ccc(N(C(=O)Cn2nnc(-c3ccc(C)o3)n2)C(C(=O)NC2CCCC2)c2ccncc2)cc1 (stereo not drawn) | – | inactive: -1.48% [at 46.1 µM] |
| CCOC(=O)N1CCC(Nc2ncnc3c2cnn3-c2ccc(Cl)cc2)CC1 | inconclusive: 0.708 µM [activator, full curve, poor fit] | – |
| Cc1cc(C)n2c(Nc3cccc(C(F)(F)F)c3)c(-c3ccsc3)nc2n1 | inconclusive: 12.6 µM [inhibitor, single point] | – |
| Nc1ccccc1-c1n[nH]c(=S)s1 | inconclusive: 11.2 µM [activator, partial curve, poor fit] | – |
| Cc1ccc(NC(=O)CNc2ccccc2N2CCCC2=O)cc1S(=O)(=O)N1CCCCC1 | inconclusive: 35.5 µM [inhibitor, partial curve, poor fit] | – |
| CCN1C(=O)C(CC(=O)Nc2ccccc2)N(Cc2ccccn2)C1=S (stereo not drawn) | inconclusive: 25.1 µM [inhibitor, single point] | – |
| Cc1ccc(-c2nnc(N3CCCCC3)c3ccccc23)cc1S(=O)(=O)N(C)C | inconclusive: 14.6 µM [inhibitor, partial curve, poor fit] | – |
| COc1ccc(S(=O)(=O)Nc2cc(C)ccc2OC)cc1C | inconclusive: 35.5 µM [inhibitor, single point] | – |
| O=C1CC(c2ccsc2)Sc2ccccc2N1 (stereo not drawn) | inconclusive: 0.112 µM [inhibitor, full curve, poor fit] | – |
| O=C(O)CCn1ccc2cc(S(=O)(=O)N3CCCCC3)ccc21 | inconclusive: 10 µM [activator, partial curve, poor fit] | – |
| COc1ccc(Cl)cc1NC(=O)CCCS(=O)(=O)c1nc(-c2ccc(OC)c(OC)c2)cc(C(F)(F)F)n1 | inconclusive: 35.5 µM [inhibitor, single point] | – |
| O=C(Nc1cnn(C23CC4CC(CC(C4)C2)C3)c1)c1cc(-c2ccccc2)on1 | inconclusive: 23.1 µM [inhibitor, partial curve, poor fit] | – |

| Structure (SMILES) | Potency | activity change, negative = inhibition |
| --- | --- | --- |
| Clc1cc(NCc2cccs2)ccc1N1CCOCC1 | inconclusive: 0.73 µM [activator, full curve, poor fit] | – |
| Cc1cc(N2CCN(c3ccccc3)CC2)n2ncnc2n1 | inconclusive: 0.794 µM [inhibitor, full curve] | – |
| Nc1ccc(CN2CCOCC2)cc1 | – | inactive: 20.6% [at 46.1 µM] |
| CCCCOC(=O)Nc1ccc(N2CCOCC2)cc1 | inconclusive: 18.3 µM [activator, partial curve, poor fit] | – |
| COc1ccc(-c2cc(C(=O)N/N=C/c3ccc4c(c3)OCO4)c3ccccc3n2)c(OC)c1 | active: 3.98 µM | – |
| COc1ccc(-c2cc(C(=O)OCC(=O)c3ccc(C)c([N+](=O)[O-])c3)c3ccccc3n2)cc1 | inconclusive: 0.891 µM [inhibitor, full curve] | – |
| COCC(C)NC(=O)c1nn(Cc2ccccc2)c(=O)c2ccccc12 (stereo not drawn) | inconclusive: 22.4 µM [activator, single point] | – |
| CC(C)CCNC(=O)c1ccc2c(c1)N(C)C(=O)c1ccccc1S2 | inconclusive: 5.01 µM [inhibitor, partial curve, poor fit] | – |
| CC1CCN(S(=O)(=O)c2cn(CC(=O)Nc3ccc(F)cc3)c(=O)c3ccccc23)CC1 | active: 5.62 µM | – |
| CCc1noc(C)c1C(=O)N1CCCC(N2CCN(c3ccccc3F)CC2)C1 (stereo not drawn) | – | inactive: 0.604% [at 46.1 µM] |
| Cc1ccccc1N(CC(=O)NCc1ccncc1)S(C)(=O)=O | inconclusive: 29.1 µM [activator, single point] | – |
| Cc1cc(C)nc(N2CCC(C(=O)N3CCN(c4cc(Cl)ccc4C)CC3)CC2)n1 | inconclusive: 18.3 µM [inhibitor, single point] | – |
| COCc1cc(C)n(CC(=O)Nc2cccc(C(C)=O)c2)c(=O)c1C#N | inconclusive: 5.62 µM [activator, single point] | – |
| Cc1ccc(-c2n[nH]c3c2C(c2cccs2)N(c2ccc(Cl)cc2)C3=O)cc1 (stereo not drawn) | inconclusive: 35.5 µM [inhibitor, single point] | – |
| CCC(CC)C1C(C#N)=C(N)Oc2n[nH]c(-c3ccccc3)c21 (stereo not drawn) | inconclusive: 16.4 µM [inhibitor, single point] | – |
| CCc1ccc(-c2cc(-c3n[nH]c(=S)n3CC)c3ccccc3n2)cc1 | – | inactive: -16.9% |
| COc1ccc(NCC(=O)N2CCCC2)cc1Cl | inconclusive: 6.31 µM [activator, single point] | – |
| CCOC(=O)CSc1nc2cc(OCC)ccc2cc1C#N | inconclusive: 29.1 µM [inhibitor, single point] | – |
| CCOC(=O)c1oc2ccc(S(=O)(=O)n3nc(-c4ccccc4)cc3N)cc2c1C | – | inactive: 1.66% |
| CCCOc1cccc(C2c3c(oc4cc(C)c(C)cc4c3=O)C(=O)N2CCCN2CCOCC2)c1 (stereo not drawn) | inconclusive: 35.5 µM [inhibitor, single point] | – |
| Cc1ccc(NC(=O)CN2C(=O)/C(=C3\SC(=S)N(C4CCS(=O)(=O)C4)C3=O)c3ccccc32)cc1 (stereo not drawn) | – | inactive: 13.7% |

Of the compounds above, these have two or more sulfur atoms:

| Structure (SMILES) | Potency | activity change, negative = inhibition |
| --- | --- | --- |
| Nc1ccccc1-c1n[nH]c(=S)s1 | inconclusive: 11.2 µM [activator, partial curve, poor fit] | – |
| O=C1CC(c2ccsc2)Sc2ccccc2N1 (stereo not drawn) | inconclusive: 0.112 µM [inhibitor, full curve, poor fit] | – |
| Cc1ccc(NC(=O)CN2C(=O)/C(=C3\SC(=S)N(C4CCS(=O)(=O)C4)C3=O)c3ccccc32)cc1 (stereo not drawn) | – | inactive: 13.7% |

Later entries

| Structure (SMILES) | Potency | activity change, negative = inhibition |
| --- | --- | --- |
| O=C(CN1CCN(c2ccccc2)CC1)Nc1ccc(OCc2ccccc2)cc1 | inconclusive: 20.6 µM [inhibitor, single point] | – |
| Cc1cccc(C)c1OCC(O)CN1CCc2ccccc2C1 (stereo not drawn) | inconclusive: 12.6 µM [inhibitor, partial curve, poor fit] | – |
| CCc1ccc(N(C(=O)c2csnn2)C(C(=O)NC(C)(C)C)c2ccccn2)cc1 (stereo not drawn) | inconclusive: 10 µM [activator, partial curve] | – |
| c1ccc(-n2nnnc2SCc2cccc(CSc3nnnn3-c3ccccc3)n2)cc1 | inconclusive: 1 µM [inhibitor, full curve] | – |
| CCCC[n+]1ccn(C2=C([O-])c3ccccc3C(=O)/C2=N\S(=O)(=O)c2ccc(Br)cc2)c1 | inconclusive: 7.08 µM [inhibitor, partial curve, poor fit] | – |
| Cn1c(C(=O)N2CCN(c3cccc(C(F)(F)F)c3)CC2)cc2sccc21 | inconclusive: 20.6 µM [inhibitor, single point] | – |
| CCc1ccc(CCC(=O)Nc2ncc(Cc3ccccc3Cl)s2)o1 | inconclusive: 31.6 µM [inhibitor, single point] | – |
| O=C(NCc1ccncc1)c1nc(-c2ccc(C(F)(F)F)cc2)no1 | – | inactive: 10.4% [at 46.1 µM] |
| CC1Cc2ccccc2N1S(=O)(=O)c1cccc(C(=O)NCc2ccco2)c1 (stereo not drawn) | inconclusive: 22.4 µM [inhibitor, single point] | – |
| CN(C)c1ccc2c(c1)Sc1cc(N(C)C)ccc1N2C(=O)c1ccccc1 | inconclusive: 1.26 µM [inhibitor, partial curve, poor fit] | – |
| CC(Sc1nnc(-c2ccco2)o1)C(=O)NCCC1=CCCCC1 (stereo not drawn) | – | inactive: -0.0361% |
| COC(=O)c1ccccc1NC(=O)CSc1n[nH]c(-c2ccncc2)n1 | inconclusive: 35.5 µM [inhibitor, single point] | – |
| CN=c1scc(-c2cccs2)n1/N=C/c1ccc(O)c(O)c1O | inconclusive: 1.58 µM [inhibitor, full curve, poor fit] | – |
| CCCCCCCCNCCS(=O)(=O)NCc1ccccc1OC | inconclusive: 25 µM [inhibitor, single point] | – |
| O=C(NN1C(=O)/C(=C/c2ccc(O)c([N+](=O)[O-])c2)SC1=S)c1ccccc1Cl | – | inactive: -6.28% [at 46.1 µM] |
| C=CCC1(c2ccccc2)Oc2ccccc2-c2nc3cc(Cl)c(Cl)cc3nc21 (stereo not drawn) | inconclusive: 0.335 µM [activator, partial curve, poor fit] | – |
| Oc1c(Cl)cc(Cl)cc1Sc1cc(Cl)cc(Cl)c1O | inconclusive: 29.1 µM [inhibitor, single point] | – |
| O=C(CCn1c2c(c3ccccc31)CCCC2)NNC(=O)c1ccccc1Cl | inconclusive: 1.26 µM [inhibitor, full curve, poor fit] | – |
| COc1ccc(C2c3c(oc4ccccc4c3=O)C(=O)N2c2nc(C)c(C)s2)cc1 (stereo not drawn) | – | inactive: 0.687% [at 46.1 µM] |
| O=C(C1CCN(Cc2ccc(Cl)cc2)CC1)N1CCN(Cc2ccc3c(c2)OCO3)CC1 | inconclusive: 7.08 µM [inhibitor, partial curve] | – |
| COc1cccc(CCNCc2cccc(C(F)(F)F)c2)c1 | inconclusive: 35.5 µM [inhibitor, single point] | – |

— PubChem BioAssay AID540276 (National Center for Advancing Translational Sciences (NCATS), 2011)
